Measured values from the supplement of paper PMC10849652.
The list shows a part of the results.

Amino acid sequences for entries named in this document (tags omitted). A change or cut given only in a name is not applied to a line headed by its entry.
UniProt P59817: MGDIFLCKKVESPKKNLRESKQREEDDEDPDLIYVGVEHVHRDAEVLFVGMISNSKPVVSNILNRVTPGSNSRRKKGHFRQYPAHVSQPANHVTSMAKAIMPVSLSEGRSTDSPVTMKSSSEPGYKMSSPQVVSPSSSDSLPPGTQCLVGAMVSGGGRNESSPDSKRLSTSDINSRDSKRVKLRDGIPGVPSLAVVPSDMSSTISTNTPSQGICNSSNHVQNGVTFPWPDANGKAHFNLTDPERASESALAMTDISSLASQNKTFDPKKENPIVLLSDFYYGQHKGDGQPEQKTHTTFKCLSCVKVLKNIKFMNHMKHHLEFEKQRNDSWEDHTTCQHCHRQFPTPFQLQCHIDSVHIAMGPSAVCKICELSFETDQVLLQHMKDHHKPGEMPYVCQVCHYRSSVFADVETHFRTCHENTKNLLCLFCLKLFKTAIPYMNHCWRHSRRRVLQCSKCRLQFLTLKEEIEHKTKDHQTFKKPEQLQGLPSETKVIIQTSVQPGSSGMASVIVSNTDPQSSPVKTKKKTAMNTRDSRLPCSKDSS
UniProt O15015: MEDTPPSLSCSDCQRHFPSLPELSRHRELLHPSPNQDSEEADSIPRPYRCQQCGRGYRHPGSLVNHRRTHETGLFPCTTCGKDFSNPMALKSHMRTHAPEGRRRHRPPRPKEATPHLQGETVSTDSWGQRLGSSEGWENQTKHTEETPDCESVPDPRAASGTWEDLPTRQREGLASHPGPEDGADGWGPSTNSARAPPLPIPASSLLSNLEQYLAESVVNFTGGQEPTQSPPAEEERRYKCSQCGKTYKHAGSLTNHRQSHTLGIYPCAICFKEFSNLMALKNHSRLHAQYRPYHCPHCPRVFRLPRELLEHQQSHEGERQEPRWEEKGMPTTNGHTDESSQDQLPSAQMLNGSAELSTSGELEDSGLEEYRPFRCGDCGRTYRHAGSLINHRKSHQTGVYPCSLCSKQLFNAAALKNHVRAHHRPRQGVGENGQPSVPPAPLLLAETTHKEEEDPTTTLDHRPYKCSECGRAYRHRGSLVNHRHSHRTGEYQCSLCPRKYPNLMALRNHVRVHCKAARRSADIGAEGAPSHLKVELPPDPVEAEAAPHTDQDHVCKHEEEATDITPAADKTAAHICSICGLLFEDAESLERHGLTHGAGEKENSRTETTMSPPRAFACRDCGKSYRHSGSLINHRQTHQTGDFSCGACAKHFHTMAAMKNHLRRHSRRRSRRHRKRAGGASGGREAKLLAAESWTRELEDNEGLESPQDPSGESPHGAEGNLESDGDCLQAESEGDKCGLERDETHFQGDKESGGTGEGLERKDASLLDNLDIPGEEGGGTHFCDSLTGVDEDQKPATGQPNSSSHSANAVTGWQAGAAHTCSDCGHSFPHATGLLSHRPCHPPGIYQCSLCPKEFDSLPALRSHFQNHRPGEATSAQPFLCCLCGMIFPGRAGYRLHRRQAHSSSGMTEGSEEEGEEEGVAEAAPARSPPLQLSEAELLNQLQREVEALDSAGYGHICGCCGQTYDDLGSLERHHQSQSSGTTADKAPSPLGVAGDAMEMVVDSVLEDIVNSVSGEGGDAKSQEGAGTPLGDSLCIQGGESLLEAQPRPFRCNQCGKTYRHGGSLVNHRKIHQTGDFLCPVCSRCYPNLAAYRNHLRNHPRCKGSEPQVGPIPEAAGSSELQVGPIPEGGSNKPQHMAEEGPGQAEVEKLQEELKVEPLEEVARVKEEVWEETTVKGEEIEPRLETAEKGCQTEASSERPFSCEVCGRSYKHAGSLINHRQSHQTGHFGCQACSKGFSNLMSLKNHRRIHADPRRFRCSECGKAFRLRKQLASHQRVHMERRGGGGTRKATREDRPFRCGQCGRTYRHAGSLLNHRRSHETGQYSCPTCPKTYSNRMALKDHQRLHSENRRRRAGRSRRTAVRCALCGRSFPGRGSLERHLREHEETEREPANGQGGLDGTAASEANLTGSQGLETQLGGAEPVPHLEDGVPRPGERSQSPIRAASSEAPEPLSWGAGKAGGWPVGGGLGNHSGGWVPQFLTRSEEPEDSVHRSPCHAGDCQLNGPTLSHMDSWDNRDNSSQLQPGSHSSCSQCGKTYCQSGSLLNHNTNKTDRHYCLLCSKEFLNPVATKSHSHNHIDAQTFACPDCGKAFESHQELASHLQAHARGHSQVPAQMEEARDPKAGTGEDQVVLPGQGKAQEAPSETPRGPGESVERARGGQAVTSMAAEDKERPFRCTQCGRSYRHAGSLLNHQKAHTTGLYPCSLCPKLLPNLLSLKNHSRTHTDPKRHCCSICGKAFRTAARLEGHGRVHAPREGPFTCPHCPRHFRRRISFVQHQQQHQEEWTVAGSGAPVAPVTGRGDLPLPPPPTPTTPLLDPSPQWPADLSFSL
UniProt Q96AP4: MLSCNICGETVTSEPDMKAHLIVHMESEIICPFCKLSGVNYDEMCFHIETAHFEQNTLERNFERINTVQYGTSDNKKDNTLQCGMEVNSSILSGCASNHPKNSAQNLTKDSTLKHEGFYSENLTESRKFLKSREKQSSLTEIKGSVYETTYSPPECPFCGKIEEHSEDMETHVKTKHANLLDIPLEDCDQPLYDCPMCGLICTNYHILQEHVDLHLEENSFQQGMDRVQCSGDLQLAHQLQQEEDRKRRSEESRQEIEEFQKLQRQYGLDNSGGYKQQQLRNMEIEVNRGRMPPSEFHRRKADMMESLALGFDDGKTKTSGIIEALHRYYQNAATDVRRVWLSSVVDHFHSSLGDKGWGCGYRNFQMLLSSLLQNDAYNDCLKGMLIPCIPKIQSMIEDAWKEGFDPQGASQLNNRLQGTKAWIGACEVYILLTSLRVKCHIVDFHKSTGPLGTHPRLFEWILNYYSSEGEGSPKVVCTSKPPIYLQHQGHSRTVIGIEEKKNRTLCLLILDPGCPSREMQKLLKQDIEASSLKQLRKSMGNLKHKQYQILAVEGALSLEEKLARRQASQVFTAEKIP
UniProt Q15072: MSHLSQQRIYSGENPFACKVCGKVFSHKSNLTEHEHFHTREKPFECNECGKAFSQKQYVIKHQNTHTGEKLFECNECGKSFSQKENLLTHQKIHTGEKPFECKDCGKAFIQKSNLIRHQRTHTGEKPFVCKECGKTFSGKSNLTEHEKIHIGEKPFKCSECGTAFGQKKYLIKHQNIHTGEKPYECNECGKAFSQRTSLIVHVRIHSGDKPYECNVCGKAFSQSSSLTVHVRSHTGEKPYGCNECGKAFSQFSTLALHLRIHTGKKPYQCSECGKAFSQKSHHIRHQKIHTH
UniProt Q96E35: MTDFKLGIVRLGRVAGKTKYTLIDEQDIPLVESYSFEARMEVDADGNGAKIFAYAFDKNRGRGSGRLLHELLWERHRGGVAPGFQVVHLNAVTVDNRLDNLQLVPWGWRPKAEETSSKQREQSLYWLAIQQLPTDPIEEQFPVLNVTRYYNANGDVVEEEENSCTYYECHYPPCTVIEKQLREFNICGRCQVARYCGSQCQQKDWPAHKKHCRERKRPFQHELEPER
UniProt Q9H707: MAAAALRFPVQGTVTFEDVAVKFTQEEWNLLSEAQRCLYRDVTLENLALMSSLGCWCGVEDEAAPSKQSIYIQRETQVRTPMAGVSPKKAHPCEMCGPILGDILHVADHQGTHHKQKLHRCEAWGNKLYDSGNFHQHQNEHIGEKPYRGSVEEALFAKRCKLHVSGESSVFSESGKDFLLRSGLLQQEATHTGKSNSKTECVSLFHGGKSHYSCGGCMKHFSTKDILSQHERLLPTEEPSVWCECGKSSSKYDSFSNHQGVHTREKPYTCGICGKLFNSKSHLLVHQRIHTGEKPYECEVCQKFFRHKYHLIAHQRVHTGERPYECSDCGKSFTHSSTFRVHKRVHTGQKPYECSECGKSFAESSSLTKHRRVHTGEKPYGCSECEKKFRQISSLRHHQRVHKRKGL
UniProt Q6V9R5: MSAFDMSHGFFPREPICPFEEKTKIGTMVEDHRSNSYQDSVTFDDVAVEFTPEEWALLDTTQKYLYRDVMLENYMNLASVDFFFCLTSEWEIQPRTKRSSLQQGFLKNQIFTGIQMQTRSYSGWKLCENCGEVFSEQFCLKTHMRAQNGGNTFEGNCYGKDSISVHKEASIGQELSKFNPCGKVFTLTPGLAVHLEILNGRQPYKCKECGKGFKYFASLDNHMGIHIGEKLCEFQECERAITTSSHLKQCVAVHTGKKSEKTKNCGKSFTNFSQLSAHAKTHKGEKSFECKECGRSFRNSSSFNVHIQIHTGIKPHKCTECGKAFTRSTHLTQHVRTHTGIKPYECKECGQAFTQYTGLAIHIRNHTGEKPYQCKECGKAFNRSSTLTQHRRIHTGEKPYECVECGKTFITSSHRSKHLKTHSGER
UniProt Q86VK4: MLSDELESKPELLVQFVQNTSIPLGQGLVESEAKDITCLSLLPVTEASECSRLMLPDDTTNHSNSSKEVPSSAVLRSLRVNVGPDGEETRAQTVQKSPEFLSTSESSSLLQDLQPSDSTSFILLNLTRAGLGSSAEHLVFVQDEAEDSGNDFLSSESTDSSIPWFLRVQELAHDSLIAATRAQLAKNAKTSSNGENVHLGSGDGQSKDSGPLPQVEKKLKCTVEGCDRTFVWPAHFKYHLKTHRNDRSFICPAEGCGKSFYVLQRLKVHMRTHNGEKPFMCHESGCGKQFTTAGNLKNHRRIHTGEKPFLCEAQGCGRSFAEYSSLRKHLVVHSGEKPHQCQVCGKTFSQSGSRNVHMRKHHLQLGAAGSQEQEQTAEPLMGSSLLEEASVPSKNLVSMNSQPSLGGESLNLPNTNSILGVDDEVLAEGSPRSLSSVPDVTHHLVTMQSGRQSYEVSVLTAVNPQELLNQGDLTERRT
UniProt Q16670: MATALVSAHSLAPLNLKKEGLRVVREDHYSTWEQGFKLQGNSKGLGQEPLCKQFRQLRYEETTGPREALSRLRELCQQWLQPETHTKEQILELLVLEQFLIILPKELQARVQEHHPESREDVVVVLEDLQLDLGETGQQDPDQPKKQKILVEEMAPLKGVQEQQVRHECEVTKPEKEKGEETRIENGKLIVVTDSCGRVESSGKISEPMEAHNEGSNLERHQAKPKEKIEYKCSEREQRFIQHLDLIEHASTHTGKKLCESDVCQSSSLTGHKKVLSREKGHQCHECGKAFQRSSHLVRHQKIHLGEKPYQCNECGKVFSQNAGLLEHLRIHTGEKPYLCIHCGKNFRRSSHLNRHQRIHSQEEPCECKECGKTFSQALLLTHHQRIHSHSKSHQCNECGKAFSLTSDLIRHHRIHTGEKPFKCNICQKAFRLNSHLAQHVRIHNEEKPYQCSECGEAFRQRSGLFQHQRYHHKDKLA
UniProt Q99676: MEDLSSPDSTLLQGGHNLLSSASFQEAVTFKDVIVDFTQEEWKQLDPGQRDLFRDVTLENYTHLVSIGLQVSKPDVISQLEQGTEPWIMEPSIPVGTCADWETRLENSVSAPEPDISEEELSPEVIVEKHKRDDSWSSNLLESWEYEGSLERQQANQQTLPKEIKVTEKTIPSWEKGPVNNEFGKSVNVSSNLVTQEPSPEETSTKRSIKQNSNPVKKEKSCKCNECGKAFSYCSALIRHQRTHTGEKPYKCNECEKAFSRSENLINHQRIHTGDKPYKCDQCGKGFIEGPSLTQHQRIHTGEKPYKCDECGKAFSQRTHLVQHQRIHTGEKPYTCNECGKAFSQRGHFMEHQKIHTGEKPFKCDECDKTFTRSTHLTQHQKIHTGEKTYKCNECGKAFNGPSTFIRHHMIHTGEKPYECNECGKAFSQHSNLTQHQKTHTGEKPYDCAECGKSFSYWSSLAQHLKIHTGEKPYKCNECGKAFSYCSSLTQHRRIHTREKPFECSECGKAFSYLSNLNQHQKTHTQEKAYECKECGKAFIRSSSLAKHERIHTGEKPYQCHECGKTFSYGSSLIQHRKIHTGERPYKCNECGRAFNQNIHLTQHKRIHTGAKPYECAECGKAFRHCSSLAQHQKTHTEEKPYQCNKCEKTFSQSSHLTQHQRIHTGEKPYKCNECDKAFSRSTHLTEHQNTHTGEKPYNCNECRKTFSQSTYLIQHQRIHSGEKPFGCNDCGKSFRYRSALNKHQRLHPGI
UniProt Q8N720: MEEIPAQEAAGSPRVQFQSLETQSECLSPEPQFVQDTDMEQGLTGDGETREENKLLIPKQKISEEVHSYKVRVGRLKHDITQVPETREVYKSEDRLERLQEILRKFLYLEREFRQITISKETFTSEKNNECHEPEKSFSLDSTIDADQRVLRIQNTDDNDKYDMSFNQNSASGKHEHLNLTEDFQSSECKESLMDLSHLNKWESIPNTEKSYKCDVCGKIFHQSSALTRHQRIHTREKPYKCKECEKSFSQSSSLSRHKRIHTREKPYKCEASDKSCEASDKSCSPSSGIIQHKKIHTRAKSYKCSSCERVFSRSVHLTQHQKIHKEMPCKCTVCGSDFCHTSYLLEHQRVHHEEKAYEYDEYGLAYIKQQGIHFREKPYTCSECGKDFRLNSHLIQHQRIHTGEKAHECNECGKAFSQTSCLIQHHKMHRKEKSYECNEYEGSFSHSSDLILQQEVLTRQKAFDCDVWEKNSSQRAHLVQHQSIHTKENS

Columns and labels:
Experiment in all cases: log2 fold change, soluble protein after heating vs DMSO (PISA); higher = thermal stabilisation; K562 lysate, 10 uM; active = over 0.2 and 3.5 SD of the protein, either way, in both replicates (recomputed)
[1] = compound: CCn1c(C(=O)N(C2CC2)C2CC2)cc2c3c(ncn3C)c(Nc3cc(C)n(C)n3)nc21
Summary of the method: (§1)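 The values are log-two fold changes in thermal stability compared with solvent controls and come from duplicates. They were obtained by TMTpro 16plex LC-MS/MS, with channel sums equalised, on the supernatant after 21,000xg for 90 min. That supernatant came from crude K562 extract at 1 mg/mL protein treated with 10 μM compound for 30 min, heated for 3 min across 48°C-58°C, pooled and brought to 0.5% NP-40 at 4°C.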

saracatinib = compound: CN1CCN(CCOc2cc(OC3CCOCC3)c3c(Nc4c(Cl)ccc5c4OCO5)ncnc3c2)CC1 [saracatinib]
Summary of the method: as §1

sotrastaurin = compound: CN1CCN(c2nc(C3=C(c4c[nH]c5ccccc45)C(=O)NC3=O)c3ccccc3n2)CC1 [sotrastaurin]
Summary of the method: as §1

Tubastatin A = compound: CN1CCc2c(c3ccccc3n2Cc2ccc(C(=O)NO)cc2)C1 [Tubastatin A]
Summary of the method: as §1

[2] = compound: CNC(=O)C1=CC=CC=C1NC2=NC(=NC=C2Cl)NC3=C(C=C(C=C3)N4CCOCC4)OC
Summary of the method: as §1

[3] = compound: CNc1nc(-c2ccc3c(N)n[nH]c3c2)cc(N2C[C@@H](C(=O)NC3CCCCC3)CC[C@H]2C)n1
Summary of the method: as §1

alisertib = compound: COc1cc(Nc2ncc3c(n2)-c2ccc(Cl)cc2C(c2c(F)cccc2OC)=NC3)ccc1C(=O)O [alisertib]
Summary of the method: as §1

gefitinib = compound: COc1cc2ncnc(Nc3ccc(F)c(Cl)c3)c2cc1OCCCN1CCOCC1 [gefitinib]
Summary of the method: as §1

barasertib = compound: CCN(CCCOc1ccc2c(Nc3cc(CC(=O)Nc4cccc(F)c4)[nH]n3)ncnc2c1)CCOP(=O)(O)O [barasertib]
Summary of the method: as §1

[4] = compound: CCn1cc(-c2ccnc3[nH]c(-c4cccc(CN(C)C)c4)cc23)c(-c2ccc(NC(=O)N(C)C)cc2)n1
Summary of the method: as §1

[5] = compound: CN1CCC(CNc2ccc3ncc(-c4cccc(OC(F)(F)F)c4)n3n2)CC1
Summary of the method: as §1

alvocidib = compound: CN1CC[C@H](c2c(O)cc(O)c3c(=O)cc(-c4ccccc4Cl)oc23)[C@H](O)C1 [alvocidib]
Summary of the method: as §1

[6] = compound: CC[C@@H]1C(=O)N(C)c2cnc(Nc3ccc(C(=O)NC4CCN(C)CC4)cc3OC)nc2N1C1CCCC1
Summary of the method: as §1

encorafenib = compound: COC(=O)N[C@@H](C)CNc1nccc(-c2cn(C(C)C)nc2-c2cc(Cl)cc(NS(C)(=O)=O)c2F)n1 [encorafenib]
Summary of the method: as §1

[7] = compound: COC(=O)[C@H](CCSC)NC(=O)C1=C(C=C(C=C1)NC[C@H](CS)N)C2=CC=CC=C2
Summary of the method: as §1

Measured: log2 fold change

ZNF280A (UniProt P59817)
inactive: [1] -0.01 | saracatinib 0.086 | sotrastaurin -0.104 | Tubastatin A -0.089 | [2] 0.041 | [3] 0.045 | alisertib 0.085 | gefitinib -0.054

ZNF561-AS1 (UniProt K7EIQ3)
inactive: barasertib 0.216 | [1] 0.132 | Tubastatin A 0.079 | [2] 0.16

ZNF646 (UniProt O15015)
inactive: [1] -0.231 | sotrastaurin 0.055 | Tubastatin A 0.033

ZUP1 (UniProt Q96AP4)
inactive: saracatinib 0.023 | [3] 0.166

ZNF813 (UniProt Q6ZN06)
inactive: [4] 0.504 | [5] -0.066 | saracatinib 0.137 | alvocidib 0.335 | [3] -0.072 | alisertib 0.022 | gefitinib 0.038

ZNF146 (UniProt Q15072)
inactive: saracatinib 0.247 | [3] 0.12

ZSCAN21 (UniProt Q9Y5A6)
inactive: [6] -0.024 | [4] 0.043 | [5] 0.053 | alvocidib -0.11 | encorafenib 0.031 | [7] 0.103

ZNF100 (UniProt Q8IYN0)
inactive: barasertib -0.073 | sotrastaurin -0.021

ZNF286A (UniProt Q9HBT8)
inactive: [4] 0.208 | [5] 0.004 | alvocidib -0.017

ZMYND19 (UniProt Q96E35)
inactive: sotrastaurin -0.01 | [2] -0.19

ZNF280A, A0A0G2JN84
inactive: sotrastaurin -0.045

ZNF552 (UniProt Q9H707)
inactive: alisertib -0.059 | gefitinib -0.106

ZNRD1 (UniProt Q9P1U0)
inactive: [4] -0.082 | [5] -0.043 | alvocidib -0.05 | [2] 0.051 | alisertib -0.075 | gefitinib -0.044

ZNF562 (UniProt Q6V9R5)
inactive: saracatinib -0.179 | [3] 0.318

ZSCAN25 (UniProt Q6NSZ9)
inactive: saracatinib 0.058 | [2] -0.052 | [3] 0.066

ZNF410 isoform 5 (UniProt Q86VK4)
inactive: [6] -0.04 | sotrastaurin -0.073 | encorafenib -0.106 | [7] 0.382

ZRSR2 (UniProt Q15696)
inactive: sotrastaurin 0.006

ZNF746 isoform 2 (UniProt Q6NUN9)
inactive: [1] -0.282 | Tubastatin A -0.137 | alisertib -0.183 | gefitinib 0.221

ZNF385A (UniProt Q96PM9)
inactive: barasertib 0.031 | [1] 0.035 | sotrastaurin -0.315 | Tubastatin A -0.1 | [2] 0.27 | alisertib -0.014 | gefitinib 0.007

ZSCAN26 (UniProt Q16670)
inactive: sotrastaurin -0.239

ZGRF1 (UniProt Q86YA3)
inactive: [6] 0.07 | [1] -0.098 | [4] -0.036 | [5] 0.072 | saracatinib -0.062 | sotrastaurin 0.08 | alvocidib 0.453 | Tubastatin A -0.028 | [3] 0.031 | encorafenib -0.039 | [7] -0.009

ZNF16 (UniProt P17020)
inactive: sotrastaurin 0.02

ZNF670 (UniProt Q9BS34)
inactive: [4] 0.015 | [5] 0.019 | alvocidib -0.039 | [2] 0.024 | alisertib -0.037 | gefitinib -0.029

ZNF184 (UniProt Q99676)
inactive: [1] 0.059 | saracatinib -0.052 | sotrastaurin -0.017 | Tubastatin A -0.066 | [3] -0.128 | alisertib -0.105 | gefitinib -0.054

ZNF655 isoform 3 (UniProt Q8N720)
inactive: [6] 0.079 | sotrastaurin 0.067 | encorafenib -0.015 | [7] 0.059

ZMAT5 (UniProt Q9UDW3)
inactive: [2] 0.111

Two entries picked at random from those above, as already listed:
ZSCAN21 (UniProt Q9Y5A6)
inactive: [6] -0.024 | [4] 0.043 | [5] 0.053 | alvocidib -0.11 | encorafenib 0.031 | [7] 0.103

ZMAT5 (UniProt Q9UDW3)
inactive: [2] 0.111

(continued)

ZNF808 (UniProt Q8N4W9)
inactive: [1] -0.191 | saracatinib 0.206 | sotrastaurin -0.008 | Tubastatin A 0.093 | [3] -0.049
